Experimental data published in paper PMC3547847.
No constants are given. Whether binding was seen depends on the method and setting. In cells and extracts the contact can be indirect. A yes stands for co-enrichment or nearness to the bait. Other partners may have been found. For part of these data: Sequences can lack the tags named with a protein.

Amino acid sequences for entries named in this document (tags omitted).
UniProt O95568: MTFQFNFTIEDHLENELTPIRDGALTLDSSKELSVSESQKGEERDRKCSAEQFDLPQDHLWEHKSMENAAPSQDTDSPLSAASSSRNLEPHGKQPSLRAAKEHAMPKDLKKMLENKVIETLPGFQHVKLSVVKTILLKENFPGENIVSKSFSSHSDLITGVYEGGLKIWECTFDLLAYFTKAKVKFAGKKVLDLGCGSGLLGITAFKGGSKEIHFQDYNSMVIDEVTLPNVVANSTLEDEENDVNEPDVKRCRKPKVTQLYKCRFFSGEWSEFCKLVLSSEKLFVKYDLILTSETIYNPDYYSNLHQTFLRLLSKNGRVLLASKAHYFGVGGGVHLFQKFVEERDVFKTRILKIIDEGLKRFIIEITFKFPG
UniProt Q8WXB1: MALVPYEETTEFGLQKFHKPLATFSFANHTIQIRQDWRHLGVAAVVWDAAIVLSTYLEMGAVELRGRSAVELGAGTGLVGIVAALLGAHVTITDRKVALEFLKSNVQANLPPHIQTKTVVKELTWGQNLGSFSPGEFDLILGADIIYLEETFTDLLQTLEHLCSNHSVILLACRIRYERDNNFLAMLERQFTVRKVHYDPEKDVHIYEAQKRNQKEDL
UniProt Q9BQ67: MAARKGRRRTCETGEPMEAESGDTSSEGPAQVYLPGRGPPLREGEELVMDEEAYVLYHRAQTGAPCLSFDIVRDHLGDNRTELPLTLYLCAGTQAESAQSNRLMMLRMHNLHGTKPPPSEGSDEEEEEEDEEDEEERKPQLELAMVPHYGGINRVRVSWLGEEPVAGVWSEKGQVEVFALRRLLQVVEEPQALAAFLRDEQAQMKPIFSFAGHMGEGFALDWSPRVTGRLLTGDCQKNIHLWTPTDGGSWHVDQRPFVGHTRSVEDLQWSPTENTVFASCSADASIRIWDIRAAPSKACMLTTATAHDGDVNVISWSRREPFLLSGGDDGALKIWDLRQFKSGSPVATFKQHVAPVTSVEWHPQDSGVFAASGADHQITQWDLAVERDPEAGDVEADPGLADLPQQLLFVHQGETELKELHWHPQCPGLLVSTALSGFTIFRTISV
UniProt P11142: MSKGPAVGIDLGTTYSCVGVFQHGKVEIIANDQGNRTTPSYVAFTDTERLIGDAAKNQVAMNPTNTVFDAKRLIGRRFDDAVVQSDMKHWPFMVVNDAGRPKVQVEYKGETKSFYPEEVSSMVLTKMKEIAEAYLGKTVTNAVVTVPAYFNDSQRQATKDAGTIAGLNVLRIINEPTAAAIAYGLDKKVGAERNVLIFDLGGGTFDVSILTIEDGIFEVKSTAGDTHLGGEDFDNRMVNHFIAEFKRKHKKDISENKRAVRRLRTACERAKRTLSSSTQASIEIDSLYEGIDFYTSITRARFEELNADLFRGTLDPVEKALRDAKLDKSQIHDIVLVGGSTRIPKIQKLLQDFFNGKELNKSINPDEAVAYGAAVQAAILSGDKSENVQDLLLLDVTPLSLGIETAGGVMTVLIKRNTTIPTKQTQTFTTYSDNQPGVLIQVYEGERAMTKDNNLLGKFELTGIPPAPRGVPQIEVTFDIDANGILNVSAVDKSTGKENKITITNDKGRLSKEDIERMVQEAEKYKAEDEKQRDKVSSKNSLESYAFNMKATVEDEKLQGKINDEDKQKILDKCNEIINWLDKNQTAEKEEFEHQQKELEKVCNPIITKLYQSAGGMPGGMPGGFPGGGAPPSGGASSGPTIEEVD
UniProt P25694: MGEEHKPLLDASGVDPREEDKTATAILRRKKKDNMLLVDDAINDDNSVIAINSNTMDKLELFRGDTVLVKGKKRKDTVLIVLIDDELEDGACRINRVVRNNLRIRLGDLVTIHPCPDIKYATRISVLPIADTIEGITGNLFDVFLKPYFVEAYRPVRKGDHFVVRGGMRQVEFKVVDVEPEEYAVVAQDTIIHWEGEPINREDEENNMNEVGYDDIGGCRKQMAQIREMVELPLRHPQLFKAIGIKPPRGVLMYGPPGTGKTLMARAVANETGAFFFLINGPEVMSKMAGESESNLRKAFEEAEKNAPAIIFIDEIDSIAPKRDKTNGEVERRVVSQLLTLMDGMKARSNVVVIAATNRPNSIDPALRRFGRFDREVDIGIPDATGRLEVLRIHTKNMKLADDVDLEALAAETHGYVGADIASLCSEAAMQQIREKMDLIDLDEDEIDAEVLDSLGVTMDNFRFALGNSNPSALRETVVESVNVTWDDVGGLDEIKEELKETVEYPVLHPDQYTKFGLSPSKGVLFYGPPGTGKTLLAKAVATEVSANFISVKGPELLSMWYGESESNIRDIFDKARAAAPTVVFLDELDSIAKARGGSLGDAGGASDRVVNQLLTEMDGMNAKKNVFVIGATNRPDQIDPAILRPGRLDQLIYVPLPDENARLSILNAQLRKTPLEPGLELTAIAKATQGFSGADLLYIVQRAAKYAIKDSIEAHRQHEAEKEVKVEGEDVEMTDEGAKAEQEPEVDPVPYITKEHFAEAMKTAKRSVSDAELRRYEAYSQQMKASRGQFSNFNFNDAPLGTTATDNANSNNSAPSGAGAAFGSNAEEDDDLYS

Experiments:
[1] = molecular target: T1, METTL21B (TAP-tagged) (human) (UniProt Q96AZ1); test: affinity purification with mass spectrometry; tandem affinity purification of C-terminally TAP-tagged methyltransferases from whole cell extracts of ponasterone A-induced EcR-293 cells; eluates on SDS-PAGE, silver stain, gel slices, LC-MS/MS; interactions scored with Decontaminator (FDR below 10%)
T1 sequence: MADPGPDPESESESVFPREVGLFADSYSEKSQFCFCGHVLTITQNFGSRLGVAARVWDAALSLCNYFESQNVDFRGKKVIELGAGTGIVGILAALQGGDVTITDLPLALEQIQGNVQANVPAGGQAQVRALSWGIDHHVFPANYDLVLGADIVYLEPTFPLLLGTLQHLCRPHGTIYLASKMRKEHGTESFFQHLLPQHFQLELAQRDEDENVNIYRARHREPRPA

[2] = molecular target: METTL18 (TAP-tagged) (human) (UniProt O95568); test: as above
[3] = molecular target: METTL21A (TAP-tagged) (human) (UniProt Q8WXB1); test: as above
[4] = molecular target: T2, Nnt1p (TAP-tagged NNT1) (Saccharomyces cerevisiae) (UniProt Q05874); test: affinity purification with mass spectrometry; tandem-affinity purification of TAP-tagged NNT1 from a constitutively expressing yeast strain, compared with untransformed strain BY4741
T2 sequence: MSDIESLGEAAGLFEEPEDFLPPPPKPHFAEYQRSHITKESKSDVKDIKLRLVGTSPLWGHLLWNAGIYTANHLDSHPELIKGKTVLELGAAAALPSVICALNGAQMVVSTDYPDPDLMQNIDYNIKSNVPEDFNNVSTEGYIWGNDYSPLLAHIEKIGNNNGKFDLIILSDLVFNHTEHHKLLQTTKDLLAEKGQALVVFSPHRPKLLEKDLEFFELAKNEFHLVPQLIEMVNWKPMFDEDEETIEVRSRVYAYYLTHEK

Substance	binding [1]	other results
Hsp70 (in the METTL21B purification) (human (endogenous in EcR-293))	binds	
GRWD1 (endogenous, prey) (from UniProt Q9BQ67 1-446)		binding [2]: binds
Hsp90 (in the METTL21B purification) (human (endogenous in EcR-293))	binds	
HSPA8/Hsc70 (endogenous, prey) (from UniProt P11142 1-646)		binding [3]: binds
STIP1 (endogenous, prey) (from UniProt P31948 1-543)	binds	
Cdc48p (from UniProt P25694 1-835)		binding [4]: binds
